These are yes or no findings as the source states them, for the method shown. Some results given as binding are weak or reduced against the parent protein; the word gives no strength.
Molecular target: T1, TAT211 polypeptide (form in the assay not stated) (human) (UniProt O95436)
T1 sequence: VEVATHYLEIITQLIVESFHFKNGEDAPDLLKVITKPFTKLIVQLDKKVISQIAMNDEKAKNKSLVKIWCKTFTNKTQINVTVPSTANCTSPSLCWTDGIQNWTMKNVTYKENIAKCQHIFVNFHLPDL
Assay: ELISA on TAT211 coated plates

B1: murine monoclonal antibody 10H1 (antibody, V domains shown)
VH: EVMLVESGGGLVRPGGSLKVSCAASGFSFSDFAMSWVRRTPDKRLEWVATIGRVASHTYYPDSMKGRFTISRDNAKNTLYLQMNSLRSDDTAIYYCVRHRGFDVGHFDFWGQGTLLTVSA
VL: DILMTQTPLSLPVSLGDQASISCRSSETLVHSNGNTYLEWYLQKLGQPPKLLIYRVSNRFSGVPDRFSGSGSGTDFTLKISRLEAEDLGVYYCFQGSHNPLTFGAGTKVEIKR
notes: Murine hybridoma IgG; also called mu10H1; murine 10H1
binding: binds

From patent publication US20220204640A1 (Genentech, published 2022)
